Results are given in words; binding and its absence hold for the method and conditions named. Binding seen in cells or lysates may run through a third protein. For some assays here: Binding can be weak; no strength is given.
How the values were obtained:
[1] = molecular target: FGFR2b (human (endogenous in T47D)) (UniProt P21802); assay: condition: only in T693A-expressing cells stimulated for 40 min. with FGF10
[2] = molecular target: FGFR2b (human (endogenous in T47D)) (UniProt P21802); assay: co-IP

By UniProt entry, the sequences of proteins in these tests, tags left out. Where a name states a change or a piece, a line headed by the entry shows the natural chain unless it says otherwise. Chains listed by the source or under a name are the forms on record and can include a tag or linker.
FGFR2b (human (endogenous in T47D)) (P21802, form named): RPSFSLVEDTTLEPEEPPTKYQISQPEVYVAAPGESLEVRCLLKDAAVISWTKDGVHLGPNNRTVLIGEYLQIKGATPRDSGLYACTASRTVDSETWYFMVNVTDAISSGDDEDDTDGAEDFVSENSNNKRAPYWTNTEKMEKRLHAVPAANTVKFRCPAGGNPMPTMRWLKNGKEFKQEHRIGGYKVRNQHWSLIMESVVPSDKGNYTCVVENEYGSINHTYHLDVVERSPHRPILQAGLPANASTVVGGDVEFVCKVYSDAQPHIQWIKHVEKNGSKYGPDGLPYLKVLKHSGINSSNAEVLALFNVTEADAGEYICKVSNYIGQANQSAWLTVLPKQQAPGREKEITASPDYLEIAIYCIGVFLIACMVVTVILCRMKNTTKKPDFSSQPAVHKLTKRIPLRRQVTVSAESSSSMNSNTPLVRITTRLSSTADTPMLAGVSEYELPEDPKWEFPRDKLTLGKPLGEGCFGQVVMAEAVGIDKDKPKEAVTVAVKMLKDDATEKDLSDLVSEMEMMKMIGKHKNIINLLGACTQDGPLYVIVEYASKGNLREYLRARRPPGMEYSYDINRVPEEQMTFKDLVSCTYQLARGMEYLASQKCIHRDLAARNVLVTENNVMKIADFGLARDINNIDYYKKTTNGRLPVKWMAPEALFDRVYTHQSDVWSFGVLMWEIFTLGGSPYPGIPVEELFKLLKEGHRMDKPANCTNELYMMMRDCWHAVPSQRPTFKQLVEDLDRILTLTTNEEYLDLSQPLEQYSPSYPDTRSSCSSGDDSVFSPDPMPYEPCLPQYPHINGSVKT

binding [1]: no binding
binding [2]: binds
Substance: RCP (from UniProt Q6WKZ4-3)

— article doi:10.1101/2021.01.04.425243
